In article doi:10.1101/2022.11.16.516705 one finds binding data, which are given here for two substances.

Protein sequences, listed by entry. Tags and fused reporters are not part of them.
UniProt Q96P20: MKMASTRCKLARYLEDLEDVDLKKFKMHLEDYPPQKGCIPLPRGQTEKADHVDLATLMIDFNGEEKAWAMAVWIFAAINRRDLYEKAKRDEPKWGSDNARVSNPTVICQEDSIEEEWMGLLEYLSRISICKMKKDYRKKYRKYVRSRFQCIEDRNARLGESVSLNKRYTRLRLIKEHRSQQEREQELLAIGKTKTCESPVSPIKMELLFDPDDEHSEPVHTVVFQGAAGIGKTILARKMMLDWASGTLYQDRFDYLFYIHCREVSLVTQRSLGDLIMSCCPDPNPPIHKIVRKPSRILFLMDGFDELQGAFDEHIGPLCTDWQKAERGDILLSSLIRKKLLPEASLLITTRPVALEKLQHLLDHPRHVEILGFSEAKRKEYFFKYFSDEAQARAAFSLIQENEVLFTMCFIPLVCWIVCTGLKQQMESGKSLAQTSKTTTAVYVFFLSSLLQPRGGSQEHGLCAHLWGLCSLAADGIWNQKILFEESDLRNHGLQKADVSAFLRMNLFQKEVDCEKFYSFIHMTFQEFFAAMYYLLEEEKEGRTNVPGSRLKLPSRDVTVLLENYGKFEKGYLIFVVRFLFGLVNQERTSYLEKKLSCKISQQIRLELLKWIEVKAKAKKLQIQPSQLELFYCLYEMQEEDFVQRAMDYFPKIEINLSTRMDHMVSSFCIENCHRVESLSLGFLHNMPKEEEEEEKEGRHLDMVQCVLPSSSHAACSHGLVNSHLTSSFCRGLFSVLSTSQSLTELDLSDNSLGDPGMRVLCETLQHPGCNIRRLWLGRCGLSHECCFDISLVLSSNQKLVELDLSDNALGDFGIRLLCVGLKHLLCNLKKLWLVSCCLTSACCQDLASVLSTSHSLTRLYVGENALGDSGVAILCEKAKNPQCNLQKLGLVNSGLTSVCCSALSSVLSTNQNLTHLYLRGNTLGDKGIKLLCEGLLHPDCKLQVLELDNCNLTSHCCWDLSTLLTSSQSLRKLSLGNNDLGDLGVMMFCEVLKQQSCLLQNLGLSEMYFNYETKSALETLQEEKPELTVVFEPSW
UniProt P11142: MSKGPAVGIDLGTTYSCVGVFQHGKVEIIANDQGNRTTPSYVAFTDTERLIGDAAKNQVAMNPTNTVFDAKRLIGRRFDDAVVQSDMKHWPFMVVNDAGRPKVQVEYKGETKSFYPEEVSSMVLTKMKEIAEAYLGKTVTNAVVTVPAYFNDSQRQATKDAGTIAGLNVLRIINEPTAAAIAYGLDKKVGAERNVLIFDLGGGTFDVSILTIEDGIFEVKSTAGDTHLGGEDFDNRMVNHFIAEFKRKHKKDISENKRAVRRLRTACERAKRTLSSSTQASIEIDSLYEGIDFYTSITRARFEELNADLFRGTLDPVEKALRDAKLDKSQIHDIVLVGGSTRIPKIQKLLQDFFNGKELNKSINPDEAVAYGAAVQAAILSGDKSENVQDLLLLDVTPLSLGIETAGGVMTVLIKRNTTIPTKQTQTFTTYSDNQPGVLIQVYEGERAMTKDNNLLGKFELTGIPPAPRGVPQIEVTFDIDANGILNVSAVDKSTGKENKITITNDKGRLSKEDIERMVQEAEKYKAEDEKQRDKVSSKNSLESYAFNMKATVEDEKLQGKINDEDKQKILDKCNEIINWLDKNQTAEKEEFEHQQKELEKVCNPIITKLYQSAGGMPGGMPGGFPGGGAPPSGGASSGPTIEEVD

No constants are given. Whether binding was seen depends on the method and setting. In cells and extracts the contact can be indirect. Some binding calls cover weakened binding; strength is not graded here.

The target in assay [1] is endogenous NLRP3 (human (endogenous in THP1)) (UniProt Q96P20). Put plainly: co-IP.
The target of assay [2] is GFP-tagged wild type NLRP3 (UniProt Q96P20). As to the kind of experiment: co-IP.

Turning to “HSC70 (HSPA8), endogenous in THP1 cells (from UniProt P11142 1-646)”, in assay [1], the binding result was “binds”. As for “HSC70 (HSPA8), endogenous in HEK293T cells (from UniProt P11142 1-646)”, the binding result in assay [2] is “binds”.
